Here are results for one molecule from US20070231333A1, “ANTI-5T4 ANTIBODIES AND USES THEREOF” (Wyeth, priority 2006, published 2007).

For the series, the system named is human 5T4. Description: Epitope assignment on human 5T4 from the mapping studies (chimeras, mutations, BIACORE). In kind it is binding.

B1: A2: murine anti-5T4 monoclonal antibody (IgG2b heavy chain); VH residues 19-135 of SEQ ID NO:6, VL residues 23-130 of SEQ ID NO:8 (antibody, listed as Mus musculus, V domains shown)
VH: MEWRIFLFILSGTAGVHSQVQLQQSRPELVKPGASVKMSCKASGYTFTDYVISWVKQRTGQGLEWIGEIYPGSNSIYYNEKFKGRATLTADKSSSTAYMQLSSLTSEDSAVYFCAMGGNYGFDYWGQGTTLTVSS
VL: MDFQVQIFSFLLISASVIMSRGQIVLTQSPAIMSASLGERVTLTCTASSSVNSNYLHWYQQKPGSSPKLWIYSTSNLASGVPARFSGSGSGTSYSLTISSMEAEDAATYYCHQYHRSPLTFGAGTKLELK
modifications: (1)..(18) leader sequence; (19)..(135) heavy chain variable region; (44)..(53) CDR1; (68)..(84) CDR2; (117)..(124) CDR3; (1)..(22) leader sequence; (23)..(130) light chain variable region; (46)..(56) CDR1; (73)..(79) CDR2; (112)..(120) CDR3
On to B1, for which the “residues of human 5T4 specifically bound” value (as stated in the detailed description, Examples 4-5, FIGS. 6-7) is 224-355. In addition, the “region of human 5T4 bound (epitope)” value (from 5T4 chimera ELISA, Example 4) is “between residues 282 and 361”.
